This is an account of results in paper PMC5725494, “Cell cycle-dependent phosphorylation regulates RECQL4 pathway choice and ubiquitination in DNA double-strand break repair”.

Sequences of proteins named here, by UniProt entry; tags and fusion partners are left off.
UniProt Q16531: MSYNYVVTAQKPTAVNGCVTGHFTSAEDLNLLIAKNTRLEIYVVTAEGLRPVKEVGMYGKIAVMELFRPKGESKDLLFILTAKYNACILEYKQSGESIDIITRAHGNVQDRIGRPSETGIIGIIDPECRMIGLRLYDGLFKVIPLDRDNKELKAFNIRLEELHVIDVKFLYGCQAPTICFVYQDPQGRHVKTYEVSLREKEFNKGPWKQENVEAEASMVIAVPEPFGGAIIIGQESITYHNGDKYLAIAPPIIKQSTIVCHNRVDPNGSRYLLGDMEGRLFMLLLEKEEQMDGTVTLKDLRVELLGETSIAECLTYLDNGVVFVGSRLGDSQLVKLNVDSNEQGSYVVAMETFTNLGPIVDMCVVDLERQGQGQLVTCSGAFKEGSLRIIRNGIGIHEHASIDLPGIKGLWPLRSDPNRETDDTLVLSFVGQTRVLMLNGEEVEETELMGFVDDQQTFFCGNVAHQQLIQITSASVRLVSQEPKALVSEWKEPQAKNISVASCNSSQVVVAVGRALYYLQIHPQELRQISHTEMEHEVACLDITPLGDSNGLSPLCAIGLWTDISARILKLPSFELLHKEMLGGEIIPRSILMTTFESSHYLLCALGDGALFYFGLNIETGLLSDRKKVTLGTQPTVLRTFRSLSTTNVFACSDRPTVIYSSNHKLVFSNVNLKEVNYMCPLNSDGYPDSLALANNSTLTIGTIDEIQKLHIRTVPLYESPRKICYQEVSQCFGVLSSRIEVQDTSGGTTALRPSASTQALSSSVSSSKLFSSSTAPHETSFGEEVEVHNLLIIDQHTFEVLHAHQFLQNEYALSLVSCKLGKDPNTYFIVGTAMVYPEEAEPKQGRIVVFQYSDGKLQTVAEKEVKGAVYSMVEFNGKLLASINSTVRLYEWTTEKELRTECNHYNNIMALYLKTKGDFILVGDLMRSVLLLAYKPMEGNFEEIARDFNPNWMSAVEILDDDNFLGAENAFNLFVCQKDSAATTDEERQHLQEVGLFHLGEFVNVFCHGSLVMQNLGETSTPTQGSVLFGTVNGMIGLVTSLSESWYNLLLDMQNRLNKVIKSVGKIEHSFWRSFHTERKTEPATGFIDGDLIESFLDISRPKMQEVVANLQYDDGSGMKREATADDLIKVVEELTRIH

These are yes or no findings as the source states them, for the method shown. In cells and extracts the contact can be indirect. Some entries that bind do so weakly or less than the wild type. Sequences can lack the tags named with a protein.

Test [1] deals with T1, 3×FLAG-tagged RECQL4 N-terminal domain NT (1-427AA) with SV40 nuclear location signal (human) (UniProt O94761).
T1 sequence: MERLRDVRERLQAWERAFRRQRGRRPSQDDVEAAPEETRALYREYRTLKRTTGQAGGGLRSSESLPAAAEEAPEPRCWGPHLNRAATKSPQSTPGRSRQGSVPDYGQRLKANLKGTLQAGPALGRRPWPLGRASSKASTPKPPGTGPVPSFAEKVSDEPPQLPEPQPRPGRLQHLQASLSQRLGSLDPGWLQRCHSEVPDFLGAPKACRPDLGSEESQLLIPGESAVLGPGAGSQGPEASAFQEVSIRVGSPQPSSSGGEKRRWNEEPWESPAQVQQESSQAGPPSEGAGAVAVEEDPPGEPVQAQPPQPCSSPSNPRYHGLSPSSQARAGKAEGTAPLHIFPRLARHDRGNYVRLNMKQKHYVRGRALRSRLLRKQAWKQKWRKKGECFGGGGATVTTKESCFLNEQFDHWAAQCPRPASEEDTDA
Briefly: co-IP; M2 FLAG beads on lysate (2 mg protein) of HEK293T cells expressing 3×FLAG-tagged RECQL4, mutants or truncations, overnight at 4 °C; lysis buffer 2 with Benzonase; Western blotting of endogenous partners. (In general: In western blotting, separated proteins are transferred to a membrane and probed.)

In test [2] the target is T2, 3×FLAG-tagged RQ4-2A (RECQL4 Ser89Ala/Ser251Ala) (human) (UniProt O94761).
T2 sequence: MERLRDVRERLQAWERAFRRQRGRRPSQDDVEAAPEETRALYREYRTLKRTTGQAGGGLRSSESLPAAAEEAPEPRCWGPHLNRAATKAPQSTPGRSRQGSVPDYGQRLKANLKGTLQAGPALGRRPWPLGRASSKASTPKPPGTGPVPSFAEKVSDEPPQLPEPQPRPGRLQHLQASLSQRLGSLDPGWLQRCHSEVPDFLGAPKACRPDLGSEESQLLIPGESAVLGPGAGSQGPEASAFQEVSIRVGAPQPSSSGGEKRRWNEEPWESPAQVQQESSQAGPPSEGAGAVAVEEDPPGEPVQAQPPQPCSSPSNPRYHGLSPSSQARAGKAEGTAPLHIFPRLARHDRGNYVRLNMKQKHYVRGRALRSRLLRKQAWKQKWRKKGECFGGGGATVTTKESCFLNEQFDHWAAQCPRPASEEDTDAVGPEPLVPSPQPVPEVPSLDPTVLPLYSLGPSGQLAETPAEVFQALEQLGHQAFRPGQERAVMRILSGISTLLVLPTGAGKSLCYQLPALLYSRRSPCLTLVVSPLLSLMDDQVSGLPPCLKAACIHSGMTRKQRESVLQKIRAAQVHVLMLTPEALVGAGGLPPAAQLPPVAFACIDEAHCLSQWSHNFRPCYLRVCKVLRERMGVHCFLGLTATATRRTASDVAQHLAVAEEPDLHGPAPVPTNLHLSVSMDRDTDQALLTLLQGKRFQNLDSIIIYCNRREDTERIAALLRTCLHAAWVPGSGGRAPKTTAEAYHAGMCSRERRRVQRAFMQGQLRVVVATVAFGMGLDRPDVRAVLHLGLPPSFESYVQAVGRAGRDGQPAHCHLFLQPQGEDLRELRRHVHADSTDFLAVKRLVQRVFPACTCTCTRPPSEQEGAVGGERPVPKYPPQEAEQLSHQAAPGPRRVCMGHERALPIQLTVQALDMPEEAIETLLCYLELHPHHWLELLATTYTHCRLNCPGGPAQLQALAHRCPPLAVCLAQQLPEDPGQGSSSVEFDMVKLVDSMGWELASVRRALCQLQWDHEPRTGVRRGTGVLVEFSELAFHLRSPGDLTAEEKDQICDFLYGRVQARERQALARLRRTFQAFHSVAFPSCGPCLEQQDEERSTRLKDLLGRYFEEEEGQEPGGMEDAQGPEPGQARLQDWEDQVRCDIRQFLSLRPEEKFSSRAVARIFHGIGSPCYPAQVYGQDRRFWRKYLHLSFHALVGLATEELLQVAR
The description is as above.

On to DDB1 (from UniProt Q16531 1-1140), for which the binding entry in test [1] and in test [2] was “binds” in each case.
